The other results are listed elsewhere or left out.

Chains of the proteins cited; added tags and fusions are not shown.
UniProt Q0JBA9, entry or part of it: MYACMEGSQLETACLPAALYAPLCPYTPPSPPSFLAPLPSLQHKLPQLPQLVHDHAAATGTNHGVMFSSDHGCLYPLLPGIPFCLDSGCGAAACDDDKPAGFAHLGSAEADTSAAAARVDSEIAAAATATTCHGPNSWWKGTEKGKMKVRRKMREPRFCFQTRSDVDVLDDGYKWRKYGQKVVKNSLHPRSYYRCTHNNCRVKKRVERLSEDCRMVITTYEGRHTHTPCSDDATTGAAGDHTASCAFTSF

Experimental findings from paper PMC7819943, “Rice protein-binding microarrays: a tool to detect cis-acting elements near promoter regions in rice” are described below.

This experiment has as its target OsWRKY34 (Oryza sativa, UniProt Q0JBA9 1-250). The experiment is described as follows: protein-binding microarray (RPBM); PBS, 2% BSA, 51.3 ng/ul salmon testes DNA, 50 uM zinc acetate, 200 nM TF, 25 C, 1 h; high values mean tight binding. As to conditions: protein: recombinant; tags: N-terminal polyhistidine and DsRed monomer fusion (pET32a); label: CyDye5-dUTP incorporated in the synthesized complementary strand; 3' TTTTT single-stranded linker to array surface; dsDNA, one strand shown. Put shortly:
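An Axon 4000B scanner gave the binding signal as per-feature fluorescence intensity in arbitrary units. This followed washing of a custom Agilent array that had been incubated for 1 h at 25 °C with 200 nM protein in PBS, 2% BSA, salmon testes DNA and 50 µM zinc acetate. The proteins were transcription factors fused at the N-terminus to polyhistidine and DsRed, expressed in E. coli BL21-CodonPlus and purified on Ni–NTA.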
With “TTCGGAAAAGGTCCCGTGGATCTCGTCGCCTCACCCCACTCGGAGTCACCTAGTGCAG”, the binding signal was 8980 fluorescence intensity (a.u.).
For the sequence “AAGGCTAGAATCTCTCCTTTTCCATTTCCCTCTCCTAATTCGGAGTCACCTAGTGCAG”, the binding signal was 8380 fluorescence intensity (a.u.).
In the case of “AGATTGATCCTGAAATTTATCCGCAACCTATTTAAATCCTCGGAGTCACCTAGTGCAG”, the binding signal was 8420 fluorescence intensity (a.u.).
Turning to “ACAGCCCTCAATTTTTCATTCCACAGCCACCACGATTTTACGGAGTCACCTAGTGCAG”, the binding signal was 11900 fluorescence intensity (a.u.).
Regarding “TTTCTTAGCTCGTGACCAATTTATACTCTATTTTCATGGCCGGAGTCACCTAGTGCAG”, the binding signal is 8720 fluorescence intensity (a.u.).
The value for “GAGAGGAGCATTTTGGCCCTTGGTTTCTTTCGGTTCTTCTCGGAGTCACCTAGTGCAG” was 9780 fluorescence intensity (a.u.); that for “CTGTTCCATTTCTCCTTGTTGCATCAGTAACTCCAAACCACGGAGTCACCTAGTGCAG” was 12200 fluorescence intensity (a.u.); that for “CATCTGATCGGCATCGGCATCGTCCTCGTCCTCGGCATCACGGAGTCACCTAGTGCAG” was 9990 fluorescence intensity (a.u.).
“TACTACTACTTCTCGGCCGGTATGACGTTCGCCGACGATTCGGAGTCACCTAGTGCAG”: the binding signal was 11000 fluorescence intensity (a.u.).
“ATCATATTCTAGTTCTACATATTCTGGCAATTATTCGTTACGGAGTCACCTAGTGCAG”: the binding signal was 8260 fluorescence intensity (a.u.).
The value for “GATGTATCCGATTTGATTTGACCTGCAGGTGCAAGTATTACGGAGTCACCTAGTGCAG” was 11700 fluorescence intensity (a.u.); that for “ATCACATTTCTTATGTCCTGCAATCATAACCTTAACCTTTCGGAGTCACCTAGTGCAG” was 9180 fluorescence intensity (a.u.).
“CTGCGAATGTTGCTGTACAAACCTAACTCATGATCCATTCCGGAGTCACCTAGTGCAG”: the binding signal was 8500 fluorescence intensity (a.u.).
In the case of “GCACGTACGTTCAGCTGTAAATGTTCTTTGCTGATTGCTACGGAGTCACCTAGTGCAG”, the binding signal is 8630 fluorescence intensity (a.u.).
“ACTTATTTGTTCTGATATCAGTGGGGTTTCATCGTTCAATCGGAGTCACCTAGTGCAG”: the binding signal was 14600 fluorescence intensity (a.u.).
Consider “AGCTGTGTGTATTTTATGCAGAGGCCGGGGTGGGCTCGGTCGGAGTCACCTAGTGCAG”, for which the binding signal is 10100 fluorescence intensity (a.u.).
Turning to “ATATATCTATATTTTTCCCCTTGGCCTCTTTTGCCCTTCACGGAGTCACCTAGTGCAG”, the binding signal is 9200 fluorescence intensity (a.u.).
For the sequence “TATATATATATATATATATATATATATATGATAATTTGTTCGGAGTCACCTAGTGCAG”, the binding signal was 8670 fluorescence intensity (a.u.).
With “GTGTATTATTCCACACGTGTTGCACCGGATTGTAATTGAACGGAGTCACCTAGTGCAG”, the binding signal was 8890 fluorescence intensity (a.u.).
To “AAGCTTTGGATGACTATCTTTCTCGGTTTAATAAAATTTTCGGAGTCACCTAGTGCAG” belongs 10500 fluorescence intensity (a.u.); to “CCGCGCCACCTCTGCCTCTTCTTGGTTCCGCCTCAAGAAACGGAGTCACCTAGTGCAG”, 10900 fluorescence intensity (a.u.).
“CACCAACCATTTCTCCTCTACCATTCCCACTATTATCATCCGGAGTCACCTAGTGCAG”: the binding signal was 12300 fluorescence intensity (a.u.).
Regarding “GTATTTTATGTTTGACTAAATATTTTTAAATTTTTCATAACGGAGTCACCTAGTGCAG”, the binding signal is 8480 fluorescence intensity (a.u.).
In the case of “CATTAGTCACACGCACTCACACCAACATTCACACAAATTCCGGAGTCACCTAGTGCAG”, the binding signal is 9940 fluorescence intensity (a.u.).
For “GATCATGTGTGGAGTTGATTGTCCAATGTGTGGAGTTGTTCGGAGTCACCTAGTGCAG”, the binding signal is 9900 fluorescence intensity (a.u.).
As for “CTCCTCCCGAGCACGTGCTATGATTTTTTTCTAACAATTTCGGAGTCACCTAGTGCAG”, the binding signal was 8460 fluorescence intensity (a.u.).
The value for “CCTGTGCTGCTGGTTTGTGTGTGTGTGCCTGTGTAGTACACGGAGTCACCTAGTGCAG” was 8300 fluorescence intensity (a.u.); that for “TTCCTCCGTTTTTTTTATTCCTGCAACTAAAAGGTATTCTCGGAGTCACCTAGTGCAG” was 8860 fluorescence intensity (a.u.).
As to “CACCGTCGTCATGGCATCTTCTCCAGCTATATAACCATCCCGGAGTCACCTAGTGCAG”, the binding signal is 9720 fluorescence intensity (a.u.).
On to “AGAATCCGAATCCGTATCGTTCTCGGACATGTCAAGCTTTCGGAGTCACCTAGTGCAG”, for which the binding signal was 11200 fluorescence intensity (a.u.).
As to “CACCACATCTTTTTTTGCCCTCATCACTACCCCTCAGGCTCGGAGTCACCTAGTGCAG”, the binding signal is 8110 fluorescence intensity (a.u.).
The value for “CTCTCTCATCCTTCTCTCATGGCTAGTGACTGTGGGGTTCCGGAGTCACCTAGTGCAG” was 11100 fluorescence intensity (a.u.).
With “CTCCACCGCTTTTGCACCGTATACCATTCGCCCAAGTCTGCGGAGTCACCTAGTGCAG”, the binding signal was 8220 fluorescence intensity (a.u.).
Consider “ATTGAATGGTTAGGGTTACACAATTGCTTTATATACTCTACGGAGTCACCTAGTGCAG”, for which the binding signal was 8820 fluorescence intensity (a.u.).
The value for “CATCTTGTAATTTTCTGTCGAACTGTGTAGTTGGTTTTTTCGGAGTCACCTAGTGCAG” was 8820 fluorescence intensity (a.u.).
For “AGTAGGAGGGTGGGTATTTGCAACAAAATGACTTATGAGGCGGAGTCACCTAGTGCAG”, the binding signal is 12800 fluorescence intensity (a.u.).
With “TCGTACACCCCTTCACCGTACGGTTCTCTTCCCCGAATCGCGGAGTCACCTAGTGCAG”, the binding signal is 8940 fluorescence intensity (a.u.).
For “TCCCCTATTTCCACTCTCGCCACCACCACTCCGCGACAAGCGGAGTCACCTAGTGCAG”, the binding signal was 10300 fluorescence intensity (a.u.).
The value for “GATTTTCTTGTTTTTGCATATAACCTAGGTCTATTTTCTTCGGAGTCACCTAGTGCAG” was 13800 fluorescence intensity (a.u.); that for “CATCTGTCCATCTTCTCCACCACCACTAGCATTCTTCTTCCGGAGTCACCTAGTGCAG” was 11000 fluorescence intensity (a.u.); that for “ATATATACGTCTGTTTGATTAATTTTTTCATGAACTTTCTCGGAGTCACCTAGTGCAG” was 8560 fluorescence intensity (a.u.).
As to “ATTCATCTCTCGCCAGTATATAAGCACACCTGATCCTGTACGGAGTCACCTAGTGCAG”, the binding signal is 8440 fluorescence intensity (a.u.).
